± gives the standard deviation. Only a part is listed here, and it is no random draw. Many of these values have a large error.
The sequences below were run on EfPiwi piRISC loaded with piRNA #1 (26 nt) (assay: pre-steady-state target cleavage rate (min^-1); guide: piRNA #1 5'p-UGAGGUAGUAGGUUGUAUAGUAUCCA; MIWI and MILI are mouse PIWI proteins and EfPiwi is from a freshwater sponge; tags in brackets are library labels; higher = faster piRNA-guided slicing of the target). Details: auxiliary factor: 500 nM Ephydatia muelleri Gtsf1.
Description: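 Cleave-'n-Seq: a library of target RNAs (target site in constant flanks) at […] was incubated with 1 nM active freshwater sponge Ephydatia fluviatilis Piwi piRISC (synthetic 5'-monophosphorylated piRNA guide) with or without 500 nM EmGtsf1 at 33 °C for 1 min to 16 h. Uncleaved targets were sequenced and the pooled three trials fitted to a burst-and-steady-state model to give the pre-steady-state cleavage rate (min^-1). Sequence is the target site only. Fits with R² ≤ 0 are excluded.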

Row | Sequence | pre-steady-state target cleavage rate
1 | GGAGACGAUACUAUACAACACUACUACCUCA | 0.00912 ± 0.0032
2 | GGAGACCUAUGUAUAGAACCUACUUCCUCA | 0.000282 ± 0.013
3 | GGAGACCUUUCUAUACAACCUACUACCUGA | 0.0049 ± 0.0044
4 | GGAGACCAUACUAAACAACCUACUUCCUCA | 0.00213 ± 0.0035
5 | GGAGAGGAUACUAUAGAACCAACUACCUCA | 0.0016 ± 0.002
6 | GGAGACGAUACUAUACAACCUACAACCUCA | 0.00407 ± 0.0013
7 | GGAGACCUAUGAUAUGGACCUACUACCUCA | 0.000904 ± 0.007
8 | GGAGACCUUACUAUACAACCUACAACGUCA | 0.00253 ± 0.0057
9 | GGAGUGGAAACUAUACAACCUACUACGUCA | 0.00326 ± 0.0026
10 | GGAGACCUAAGCUAUACAACCUACUACCUCA | 0.184 ± 0.066
11 | GGAGAGGAUACUUUACAACCUACUACGUCA | 0.00296 ± 0.0023
12 | GGAGACGAUAGUAUACAACCUUCUACCUCA | 0.00129 ± 0.0032
13 | GGAGAGGAUACUAUACAACCUUCUACCUCA | 0.00778 ± 0.0039
14 | GGAGACCUAACUAUUCUACCUACUACCUCA | 0.000922 ± 0.0072
15 | GGAGUCGAUACUAUACAACCUAGUACCUCA | 0.00334 ± 0.0014
16 | GGAGACCUAUCUAUACAACCAACUACCUCA | 0.00235 ± 0.0028
17 | GGAGACCUUACUAUACAACCUACUACCUCU [g2:g22:cont:t1U] | 1.04 ± 0.39
18 | GGAGACCUAUCUAUACAACCUACCACCUCA | 0.00396 ± 0.0045
19 | GGAGACCUAACUAUACAUGGUACUACCUCA | 0.00289 ± 0.0051
20 | GGAGACCUAUGUUUACAACGUACUACCUCA | 0.000588 ± 0.0042

From no. 7 up to 13, copied from above:
Row | Sequence | pre-steady-state target cleavage rate
7 | GGAGACCUAUGAUAUGGACCUACUACCUCA | 0.000904 ± 0.007
8 | GGAGACCUUACUAUACAACCUACAACGUCA | 0.00253 ± 0.0057
9 | GGAGUGGAAACUAUACAACCUACUACGUCA | 0.00326 ± 0.0026
10 | GGAGACCUAAGCUAUACAACCUACUACCUCA | 0.184 ± 0.066
11 | GGAGAGGAUACUUUACAACCUACUACGUCA | 0.00296 ± 0.0023
12 | GGAGACGAUAGUAUACAACCUUCUACCUCA | 0.00129 ± 0.0032
13 | GGAGAGGAUACUAUACAACCUUCUACCUCA | 0.00778 ± 0.0039

Going on with the list.

Row | Sequence | pre-steady-state target cleavage rate
21 | GGAGAGGAUACUAUACAACCUACUAGGAGA [g6:g25:cont:t1A] | 0.00363 ± 0.0023
22 | GGAGACGAUACUAUACAACCUACUAGGAGA [g6:g24:cont:t1A] | 0.00317 ± 0.0021
23 | GGAGUGGAUACUAUACAAGCUACUAGCUCA | 0.00331 ± 0.0021
24 | GGAGACCUAUGAUAUGUUGCUAACUACCUCA | 0.000398 ± 0.0046
25 | GGAGACCUAUGUUUACAACCUACUAGCUCA | 0.00195 ± 0.0054
26 | GGAGACCUAUGUAUACAACCUACAAGCUCA | 0.000143 ± 0.019
27 | GGAGACCUAACUAUACAUCCUACAACCUCA | 0.00371 ± 0.0038
28 | GGAGUGGAUACUAUACAACCUACUAGCACA | 0.00246 ± 0.0018
29 | GGAGACCUAUCAAUAGAACCUACUACCUCA | 0.000819 ± 0.0079
30 | GGAGACCUAUGAUAUGUACCAUCUACCUCA | 0.000137 ± 0.018
31 | GGAGACCUAUGAUUUCAACGUACUACCUCA | 0.00142 ± 0.0052
32 | GGAGACCUAUGAUAAGUUCCUACUACCUCA | 0.00143 ± 0.0052
33 | GGAGAGGAUACUAUACAAUCUACUACCUCA | 0.0116 ± 0.0062
34 | GGAGUGGAUACUAUACAUCCUACUACCUCA | 0.124 ± 0.044
35 | GGAGACGAUACUAUACAACGUACUACGUCA | 0.00379 ± 0.0014
36 | GGAGUCCAUACUAUACAACCUACUACCUCA | 0.0575 ± 0.019
37 | GGAGACCAUACUAUACAACCUUCUAGCUCA | 0.00404 ± 0.0045
38 | GGAGACCUAUGAUUACAACCUACUUCCACA | 0.000217 ± 0.014
39 | GGAGACCUAACUAUACAACCUACUAGCCUCA | 0.00191 ± 0.0053
40 | GGAGACCUAUGAUAUGUUCCGACUACCUCA | 0.00138 ± 0.0065
